Earlier results in patent publication US10201565B2, “Gas conditioning” (EndoSAT NV, priority 2010, dated 2019).
For at least one compound, name, drawing or mass did not settle the structure.

Assays:
[1] = cited from earlier work
[2] = test system: adhesion formation; conditions: laparoscopic mouse model, background; cited from earlier work

SMILES | densities [1] [g/L] | adhesion formation [2]
N#N [N2] | 1.69 | –
C[C@@H]1C[C@H]2[C@@H]3CCC4=CC(=O)C=C[C@]4(C)[C@@]3(F)[C@@H](O)C[C@]2(C)[C@@]1(O)C(=O)CO [dexamethasone] | – | further decreased adhesions
O=C=O [CO2, carbon dioxide] | 1.977 | –
